Laboratory results as given in patent US20250115677A1 (BeiGene Switzerland GmbH, priority 2022, published 2025).

Test: general procedure: solution-phase peptide synthesis; HATU/DIEA
Settings: late stage modification step

| Substance | step yield [%] |
| --- | --- |
| (S)-11-benzyl-1-(9H-fluoren-9-yl)-20,20-dimethyl-3,6,9,12,15-pentaoxo-2,18-dioxa-4,7,10,13,16-pentaazahenicosan-21-oic acid | 84.8 |
| Benzyl (S)-11-benzyl-1-(9H-fluoren-9-yl)-20,20-dimethyl-3 9,12,15-pentaoxo-2,18-dioxa-4,7,10,13,10-pentaazahenicosan-2l -oate | 29.2 |
